Measurements published in paper PMC8942261.
No constants are given. Whether binding was seen depends on the method and setting. In cells and extracts the contact can be indirect. Some binding calls cover weakened binding; strength is not graded here.

By UniProt entry, the sequences of proteins in these tests, tags left out.
UniProt P03182: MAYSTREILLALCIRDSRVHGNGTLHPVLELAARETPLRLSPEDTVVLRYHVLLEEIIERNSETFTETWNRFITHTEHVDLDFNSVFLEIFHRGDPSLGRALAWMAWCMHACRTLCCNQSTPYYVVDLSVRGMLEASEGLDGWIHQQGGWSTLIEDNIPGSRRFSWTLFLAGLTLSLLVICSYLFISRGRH
UniProt Q5SQI0: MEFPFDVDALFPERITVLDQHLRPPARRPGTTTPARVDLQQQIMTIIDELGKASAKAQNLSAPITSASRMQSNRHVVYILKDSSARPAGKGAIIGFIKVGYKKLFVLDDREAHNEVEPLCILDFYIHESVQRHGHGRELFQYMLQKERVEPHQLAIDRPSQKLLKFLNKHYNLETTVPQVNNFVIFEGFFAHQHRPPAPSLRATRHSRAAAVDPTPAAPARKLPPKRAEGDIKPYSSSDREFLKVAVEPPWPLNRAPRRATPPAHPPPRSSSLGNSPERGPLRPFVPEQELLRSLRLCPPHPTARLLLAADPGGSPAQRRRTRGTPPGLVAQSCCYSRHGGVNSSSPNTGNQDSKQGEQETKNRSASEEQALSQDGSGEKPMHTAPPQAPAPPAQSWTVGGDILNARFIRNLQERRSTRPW

Biological target: BHRF1-HA (Epstein-Barr virus-encoded BHRF1 protein, HA-tagged) (Epstein-Barr virus) (UniProt P03182)
Assay: co-IP; HeLa cells co-transfected with BHRF1-HA and GFP-ATAT1 for 24 h; lysed at 4°C in RIPA buffer; BHRF1 precipitated with rabbit anti-HA or ATAT1 with mouse anti-GFP overnight at 4°C; Protein A or G beads, washed three times with RIPA buffer; blots with anti-GFP and anti-HA

Substance: GFP-ATAT1 (GFP-tagged alpha-tubulin N-acetyltransferase 1) (from UniProt Q5SQI0 1-421) (enzyme)
- binding: binds
